Experimental data reported in the supplement of paper PMC3334620.
The full ranking holds about 33,000 sequences; the median of “E-score (-0.5 to 0.5)” is about -0.0034, and the highest 2% start at about 0.25. The list shows a part of the results.

molecular target: T1, Yap3 (UniProt P38749); test: PBM E-score (8-mer binding enrichment) (E-score (-0.5 to 0.5)); higher = stronger / more preferred TF binding; details: protein concentration: 100 nM; construct: GST-full length
T1 sequence: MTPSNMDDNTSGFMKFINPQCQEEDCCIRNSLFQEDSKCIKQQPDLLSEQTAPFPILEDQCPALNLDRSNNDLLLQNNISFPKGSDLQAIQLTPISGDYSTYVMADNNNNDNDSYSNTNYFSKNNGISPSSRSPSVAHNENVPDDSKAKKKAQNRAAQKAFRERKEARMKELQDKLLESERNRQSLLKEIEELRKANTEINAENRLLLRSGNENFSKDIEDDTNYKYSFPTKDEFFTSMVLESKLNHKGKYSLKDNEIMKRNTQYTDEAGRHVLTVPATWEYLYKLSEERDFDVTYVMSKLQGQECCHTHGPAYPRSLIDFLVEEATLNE
Outline: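 Full-length yeast transcription factors or their DNA-binding domains, GST-tagged and expressed with PURExpress, were applied at about 100-200 nM to universal all-10-mer Agilent arrays. These arrays had been made double-stranded by primer extension on fresh or once-stripped slides. Detection used fluorescent anti-GST, normalisation used masliner, and E-scores for ungapped eight-base words pooled with reverse complements came from the Universal PBM Analysis Suite.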

| Sequence | PBM E-score |
| --- | --- |
| ACTTAGAT | 0.231 |
| CTTCCAAA | 0.0319 |
| CGGAGCTC | -0.292 |
| GACTCGCA | -0.0178 |
| GATAACGA | 0.174 |
| CAGCAGCA | -0.0247 |
| AAGTCTGG | -0.0153 |
| ATCATATG | 0.203 |
| AGTCTGCA | -0.0452 |
| CCCTCTAG | -0.223 |
| CAAAATTG | 0.184 |
| CACAATGA | 0.181 |
| ATCCATCG | -0.128 |
| ATGTAGAG | -0.0296 |
| CCCTCTGC | -0.322 |
| CCGATACA | 0.0602 |
| ACTAGTTG | -0.0214 |
| GTACAGAC | -0.0267 |
| CACAGTAG | 0.0618 |
| CCATCTTA | 0.00932 |
| CGAGGGAG | -0.23 |
| AATCGGTC | -0.086 |
| AATGGCGG | -0.159 |
| CTCAAACC | -0.0437 |
| ATGCTGCG | -0.0856 |

| Sequence | PBM E-score |
| --- | --- |
| ACCTCGTA | 0.109 |
| CGCCACAC | 0.0468 |
| ATAAAACA | 0.154 |
| CCATAGCA | -0.0905 |
| GACTGCGC | -0.117 |
| AACCCGGC | -0.249 |
| AGTCGGGA | -0.136 |
| CATACTCA | 0.043 |
| CTTTAAAC | -0.0648 |
| CGGATGAA | 0.265 |
| GCTCTTCA | -0.117 |
| TAGGGGCA | 0.0604 |
| CGGTCTAC | 0.0134 |
| AACAATCG | 0.0368 |
| GATAACCA | 0.161 |
| CGTTAGTA | 0.241 |
| ATAGGCGA | 0.0427 |
| GGCTGACC | -0.206 |
| TCGAGCAA | 0.02 |
| AGGACATG | -0.00179 |
| CCTTAAGC | -0.0989 |
| CGACGAGC | -0.079 |
| ACTGGGGC | -0.171 |
| TCGGAGAA | -0.172 |
| ACGCGGGG | -0.0549 |

Part of the list above, with tabs:
Sequence	PBM E-score
GATAACCA	0.161
CGTTAGTA	0.241
ATAGGCGA	0.0427

More results follow:

| Sequence | PBM E-score |
| --- | --- |
| CACTGCTA | 0.025 |
| CCCCTAGC | -0.335 |
| GGCACGCA | -0.0758 |
| ACAGTAAC | 0.188 |
| CAATCCTA | -0.0392 |
| AGTCGGGG | -0.205 |
| AGACCTAG | -0.0688 |
| AACTAGTG | -0.0582 |
| CGTCCGAG | -0.0404 |
| CCGGCCAC | -0.174 |
| AAGGGCGC | -0.115 |
| AGGTATGC | 0.142 |
| ACTAAGTA | 0.124 |
| AACACGGA | 0.0134 |
| ATAGTGCG | 0.053 |
| CATCTACC | 0.145 |
| GACAGGTC | -0.226 |
| GCAGGCGA | -0.142 |
| CGGACTTA | -0.0638 |
| CAGCGTTA | 0.00477 |
| TAAATAAA | 0.282 |
| GAAGATAC | 0.165 |
| TAATGTCA | 0.151 |
| CCCACCCA | -0.0422 |
| AACTAGGA | 0.0985 |

| Sequence | PBM E-score |
| --- | --- |
| CTATTTGA | 0.27 |
| AGAACTTC | -0.0782 |
| GCTAGGCC | -0.229 |
| AACTATGG | -0.0679 |
| AGTATTAT | 0.1 |
| AAAGGTTG | -0.0373 |
| CCTGACGC | -0.175 |
| CAAAAATG | 0.126 |
| AGGACAGG | -0.206 |
| CCGACCCC | -0.364 |
| AAGGCTCC | -0.321 |
| CTTGTCTA | 0.018 |
| AACGAACG | -0.00775 |
| AAATACGT | 0.187 |
| CTCTGCGA | -0.0183 |
| CTCGTTAC | 0.143 |
| TATGTCGA | 0.151 |
| CTTTACAA | -0.009 |
| CTTCTTGA | 0.0155 |
| CTATCACC | -0.0318 |
| AGACGCTC | -0.253 |
| AGATCCCA | -0.0651 |
| GGCGAATA | 0.0668 |
| GCACTAAA | 0.179 |
| CAGCTGGA | 0.102 |

| Sequence | PBM E-score |
| --- | --- |
| ACTGGACG | -0.0457 |
| GTTAACGA | 0.167 |
| ACCAGAGA | -0.00787 |
| AGATTGTC | -0.0909 |
| GGAGTCAA | -0.156 |
| ACCGAATG | -0.0639 |
| GCAACACA | -0.0278 |
| AACCATGT | 0.00383 |
| ACCTCTGA | -0.0278 |
| GAGAGGGC | -0.449 |
| AAACGCCG | 0.119 |
| AGTCTAAC | -0.137 |
| AACAATAA | 0.179 |
| ATCACCAT | 0.13 |
| CAACGGGG | -0.152 |
| CCGTCAAG | -0.0289 |
| GTATCGAC | 0.0837 |
| ATTCACCG | 0.182 |
| CCCAAGGA | -0.126 |
| CTCGCCAC | 0.0355 |
| CATTTAAC | 0.0928 |
| ATCCATAA | 0.258 |
| AAAGGCCC | -0.021 |
| AGCATTCA | 0.0165 |
| GATGCATC | 0.139 |

| Sequence | PBM E-score |
| --- | --- |
| ACATCAGA | 0.0871 |
| ACGGTAAT | 0.0508 |
| AGTGATTC | 0.021 |
| ATCTTGGG | 0.062 |
| AACCTGGC | -0.105 |
| CAGTGAAG | -0.0604 |
| CGAGATGA | -0.0283 |
| CCCCTGGC | -0.307 |
| CAAGGTGC | -0.163 |
| ACTAATTC | 0.178 |
| GGTCACAA | -0.0419 |
| GTAGAGTA | 0.0372 |
| GTCCCAAC | -0.105 |
| GACTAATC | 0.175 |
| GCGAACTA | 0.105 |
| ACCATCAC | 0.0126 |
| ACGTTTCA | 0.096 |
| GGGTACAA | -0.0419 |
| CGGCAAAG | -0.0725 |
| CGACCGGC | -0.172 |
| AGCATTGC | -0.181 |
| AACGGAGG | -0.117 |
| AGCCTGTA | -0.0823 |
| GCGTAAGA | 0.211 |
| AGACGTGC | 0.0139 |

| Sequence | PBM E-score |
| --- | --- |
| CGCCTACC | -0.18 |
| AACTCTGT | -0.0279 |
| AAAATCCA | 0.28 |
| AATAGGCG | 0.143 |
| GACTACCC | -0.0996 |
| GGACGTTA | 0.0755 |
| ACTTGATC | 0.157 |
| AGCATAAG | 0.157 |
| GTCCTACA | 0.109 |
| ATCACATC | 0.131 |
| AATCTGTA | 0.085 |
| ACATCCTG | 0.186 |
| GTTGGTCA | 0.144 |
| AACTAGCA | 0.109 |
| AGTAATCG | 0.149 |
| GGTATCCA | 0.0469 |
| AAACATCT | -0.0427 |
| GCGTTCCC | -0.184 |
| AGACTGCT | 0.0597 |
| AGATCTGC | -0.147 |
| CCCAGAGG | -0.318 |
| CGCATTTA | 0.126 |

Given tab-delimited: entries from further up
Sequence	PBM E-score
GACTACCC	-0.0996
AATCTGTA	0.085
AAACATCT	-0.0427
CCCAGAGG	-0.318
